# Patent publication US20170320950A1
# Target: cynomolgus VISTA extracellular domain (cynomolgus)
# Assay: ELISA
row,Binder,binding
1,"VSTB95 (antibody, human IgG1, kappa, V domains shown) VH: EVQLVESGGGLVQPGGSLRLSCAASGFTFRNYGMSWVRQAPGKGLEWVASIISGGSYTYYPDSVKGRFTISRDNAKNSLYLQMNSLRAEDTAVYYCARIYDHDGDYYAMDYWGQGTTVTVSS VL: DIVMTQSPLSLPVTPGEPASISCRSSQSIVHSNGNTYLEWYLQKPGQSPQLLIYKVSNRFSGVPDRFSGSGSGTDFTLKISRVEAEDVGVYYCFQGSHVPWTFGQGTKLEIKR",binds
2,"VSTB50 (antibody, human IgG1, kappa, V domains shown) VH: QVQLVQSGSELKKPGASVKVSCKASGYTFTNYGLNWVRQAPGQGLEWMGWINPYTGEPTYADDFKGRFVFSLDTSVSTAYLQICSLKAEDTAVYYCAREGYGNYIFPYWGQGTLVTVSS VL: DIVMTQTPLSLSVTPGQPASISCRASESVDTYANSLMHWYLQKPGQPPQLLIYRASNLESGVPDRFSGSGSGTDFTLKISRVEAEDVGVYYCQQTNEDPRTFGQGTKLEIKR",binds
3,"VSTB53 (antibody, human IgG1, kappa, V domains shown) VH: QVQLVQSGAEVKKPGASVKVSCKASGYTFTHYTIHWVRQAPGQGLEWMGYIIPSSGYSEYNQKFKDRVTMTRDTSTSTVYMELSSLRSEDTAVYYCARGAYDDYYDYYAMDYWGQGTLVTVSS VL: DIVMTQSPLSLPVTPGEPASISCRSSQTIVHSNGNTYLEWYLQKPGQSPQLLIYKVSNRFSGVPDRFSGSGSGTDFTLKISRVEAEDVGVYYCFQASHVPWTFGQGTKLEIKR",binds
4,"VSTB60 (antibody, human IgG1, kappa, V domains shown) VH: QVQLVQSGSELKKPGASVKVSCKASGYTFTNYGMTWVRQAPGQGLEWMGWINTYTGESTYADDFKGRFVFSLDTSVSTAYLQICSLKAEDTAVYYCARDYYGIYVSAYWGQGTLVTVSS VL: DIVMTQTPLSLSVTPGQPASISCRASESVDNYANSFMHWYLQKPGQSPQLLIYRASNLESGVPDRFSGSGSGTDFTLKISRVEAEDVGVYYCQQSHEDPYTFGQGTKLEIKR",binds

# No constants are given. Whether binding was seen depends on the method and setting. A result given as binding can be weak or reduced; the word gives no strength.
